PubChem BioAssay AID652243, Drosophila RNAi Screening Center | 2013
The screen tested about 24,000 reagents; this is an unselected part of those that have a named target and a result. In the full data, 246 (1%) got an active call. 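Plates not normalised; calls are printed but the firefly/Renilla ratio behind them is not deposited; fold cut for lowering reported inconsistently.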 The raw values are shown without normalisation. A plus sign joins genes that one reagent is predicted to hit. The record does not give: the amount of reagent.

- Purpose: 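Fly regulators of androgen-dependent reporter output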 (primary screen)
- System: Drosophila S2R+ cells
- Reagents: long dsRNA against Drosophila genes
- Timing: 72 h (48 h, then 24 h hormone)
- Treatment: synthetic androgen R1881 at 10 nM for 24 h
- Measured: 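Firefly light from an androgen-responsive reporter and Renilla control light per well, raw and unnormalised, for each of two replicates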
- Direction: firefly reporter light: higher = more light from androgen-responsive reporter; Renilla control light: higher = more constitutive control signal (cell number, transfection)
- Call rule: 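Hit when the log firefly-to-Renilla ratio dropped or increased by a fixed fold versus the mean of GFP or LacZ controls across duplicate plates; lowering cut given as 1.5 and as 3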
- Calls: active = hit: reporter lowered or raised; inactive = no hit

gene,dsRNA,"firefly reporter light, replicate 1","firefly reporter light, replicate 2","Renilla control light, replicate 1","Renilla control light, replicate 2",activity call
ago (GeneID 38516),DRSC08463,3.12e5,2.06e5,7.88e5,1.33e6,inactive
Blm + CG14721,DRSC14943,2.69e5,3.46e5,4.13e6,4.24e6,inactive
nopo (GeneID 37083),DRSC06918,8.14e5,8.57e5,1.97e6,1.56e6,inactive
CG7394 (GeneID 39294),DRSC10835,3.11e5,3.49e5,3.23e6,2.94e6,inactive
CG12895 (GeneID 36103),DRSC06210,4.39e5,2.93e5,3.24e6,2.48e6,inactive
CG12895 (GeneID 36103),DRSC25590,7.19e5,9.48e5,1.29e6,1.06e6,inactive
slp2 (GeneID 33608),DRSC00836,1.43e5,1.71e5,7.02e5,9.72e5,inactive
slp2 (GeneID 33608),DRSC26622,4.06e5,5.61e5,4.60e5,4.62e5,inactive
CG13272 (GeneID 35013),DRSC02249,1.12e5,1.54e5,1.85e6,2.30e6,inactive
CG13272 (GeneID 35013),DRSC22910,4.51e5,1.21e6,1.26e6,1.63e6,inactive
CG13272 (GeneID 35013),DRSC28613,4.19e5,4.79e5,1.09e6,1.59e6,inactive
CG11700 (GeneID 31564),DRSC17794,12919,28432,1.55e5,1.60e5,inactive
CG11700 (GeneID 31564),DRSC23384,1.23e5,1.48e5,1.29e5,1.45e5,inactive
CG12917 (GeneID 36065),DRSC06231,3.25e5,2.62e5,1.44e6,1.40e6,inactive
PNUTS (GeneID 33270),DRSC00638,3.77e5,5.04e5,2.62e6,2.44e6,active
PNUTS (GeneID 33270),DRSC23503,2.64e5,2.88e5,6.64e5,6.40e5,active
Sec13 (GeneID 44437),DRSC14144,82991,93294,6.48e5,6.39e5,inactive
wntD (GeneID 41633),DRSC16423,1.12e5,1.23e5,2.24e6,2.05e6,inactive
wntD (GeneID 41633),DRSC28538,3.44e5,5.09e5,8.03e5,1.33e6,inactive
CG17234 (GeneID 59225),DRSC00490,1.36e5,63291,6.71e5,4.84e5,inactive
CG42583 (GeneID 8674103),DRSC22937,4.92e5,6.69e5,1.19e6,1.73e6,inactive
CG42583 (GeneID 8674103),DRSC26327,4.78e5,4.72e5,8.02e5,8.61e5,inactive
CG11902 (GeneID 43070),DRSC14434,4.95e5,7.17e5,1.83e6,2.25e6,inactive
CG11902 (GeneID 43070),DRSC28805,3.60e5,3.86e5,8.10e5,8.67e5,inactive

A portion of the results above, as a working copy:
gene,dsRNA,"firefly reporter light, replicate 1","firefly reporter light, replicate 2","Renilla control light, replicate 1","Renilla control light, replicate 2",activity call
Sec13 (GeneID 44437),DRSC14144,82991,93294,6.48e5,6.39e5,inactive
wntD (GeneID 41633),DRSC16423,1.12e5,1.23e5,2.24e6,2.05e6,inactive
wntD (GeneID 41633),DRSC28538,3.44e5,5.09e5,8.03e5,1.33e6,inactive
